Common to all, as to type: functional
What all share (conditions): read-out: ED50 (the source's name)

The test system of assay [1] is P388. As to the kind of experiment: Cytotoxic activity against P388 mouse lymphocytic leukemia cell line.
In assay [2] the test system is P388. As to the kind of experiment: Cytotoxic activity against P388 mouse lymphocytic leukemia cell line (doxorubicin resistant).
Assay [3] has as its system J774. As to the kind of experiment: Cytotoxic activity against mouse macrophage cell line J7.COL-100.
Assay [4] relates to J774. Put plainly: Cytotoxic activity against mouse macrophage cell line J7.VBL-1.
A further assay deals with J774.2. As to the kind of experiment: Cytotoxic activity against mouse macrophage cell line J774.2.

For the molecule `COc1c(O)cc2c(c1OC)-c1ccc(SC)c(=O)cc1C(NC(=O)C(F)(F)F)CC2` (stereo not given), the EC50 with P388 [1] worked out at 6 nM; in the assay on P388 [2], 38 nM; in the assay with J774 [3], 4500 nM; with J774 [4] it was 750 nM; in the assay with J774.2 it was 13 nM.
